Common to all, as to test: FRET or BRET; FLIM-FRET: GFP fluorescence lifetime in nuclei of Nicotiana tabacum leaf epidermal cells co-expressing GFP- and mCherry/RFP-tagged proteins; measured within nuclear speckles (AtPWO1, SmPWOa) or in the nucleolus (SmPWOb)
On the technique in general: BRET reads energy transfer from a luciferase to a nearby fluorophore.

The target of assay [1] is SmCLF-mCherry (i35Spro::SmCLF-mCherry) (Selaginella moellendorffii).
Assay [2] has as its target mCherry-AtCLFΔSET (i35Spro::mCherry-AtCLFΔSET) (Arabidopsis thaliana).
Assay [3] has as its target mCherry-AtSWNΔSET (i35Spro::mCherry-AtSWNΔSET) (Arabidopsis thaliana).

These are yes or no findings as the source states them, for the method shown. Binding seen in cells or lysates may run through a third protein. For part of these data: Binding can be weak; no strength is given. Where a sequence is shown, tags or fusion partners need not be part of it.

B1: AtPWO1-GFP (i35Spro::AtPWO1-GFP) (protein, UniProt Q9M9N3 1-769)
chain: MASPGSGAVDWTVGSIVWVRRRNGSWWPGRILGQEDLDSTHITSPRSGTPVKLLGREDASVDWYNLEKSKRVKPFRCGDFDECIERVESSQAMIIKKREKYARREDAILHALELEKEMLKREGKLVPEKARDDSLDATKERMAIVRVQDTSNGTRESTDYLRTNHVGDVMHLLRDKEEDQPSCEDEAVPRMRGLQDFGLRTASSKRKISCSNGPDTSFKYLARSNSSASSSGDHSMERPIYTLGKEKTKSRAEAKRTKYMFTPSESNDVSDLHENLLSHRDAMHSSFAGGDTRYSDYDPPNFLEDMESDYSESETDSSDMEEDTDDDIPLLSGAGRHSERRNTFSRHTSGEDESTSSEEDHYESSISGDSSYLYSQNPNNEASTVSNWQHKGKRNFRTLPRRSARKRKLHRNRLEDGRYCEYKRRAFGQKPMGYGLDFNGINDMSDGTDDTDPNERQFGDRMIVPGDDYQLSNVVASRCKNIYSHDMLDWDDDPWEGRIGMKKRGEEKLEGLGQEFDVSERHFGRKTYSSLMDVDLEVRGSYQKGPVPIVSLMSKLNGRAIIGHPVEVEVLADGSSESYIQTIDYFGNETTYQDKTFLLPSAWKTARRSNSRVPRLQPFSSSVEADDDATYDYSLADQGRKPLVKKLGLGHFSNDDNSVRRNSSLRIPRPPAERKQQHQQQQKKLLKNTNATASQKTRALSSFSGEQGHNGMKASRDRTHELSNRRVLPGPPTVACIPVKLVYSRLLEKINRPPSKPTAKAFNERRRVQ
As to B1, the figures for the binding result in assay [1], in assay [2] and in assay [3] were “no binding”, “no binding” and “binds”, respectively.

The values above are taken from article PMC13193366.
